Measured values reported in publication PMC11993918, “Flipped binding modes for the same agonist in closely related neuropeptide-gated ion channels” (Biophysical Journal, 2025).
Some results come without the dose or concentration used.

System: M. fuliginosus FaNaC1
Assay: Two-electrode voltage clamp of oocytes expressing M. fuliginosus FaNaC1
Assay type: cell-based, Malacoceros fuliginosus
Conditions: voltage ramps -80 mV to 80 mV, n = 4
Source text: A. kurodai FaNaC (NCBI GenBank: AB206707.1) and M. fuliginosus FaNaC1 (NCBI GenBank: ON156825.1) cDNAs in tailored pSP64 plasmid vectors including Xenopus laevis UTRs and poly(A) sequences have been described at length previously ([9],[16]). A. kurodai FaNaC F188Y, F188tag (amber stop codon), F453Y, and F453tag mutants were generated by site-directed mutagenesis as detailed in ([17]) with custom primers (Merck) and PCR with Phusion High-Fidelity DNA polymerase (Thermo Fisher). All coding sequences were confirmed by Sanger sequencing (Genewiz). Plasmid DNA was linearized by digesting with EcoRI (Thermo Fisher) and purified with the DNA Clean & Concentrator Kit (Zymo). mRNA was then transcribed using the mMESSAGE mMACHINE SP6 Transcription Kit (Thermo Fisher) and purified with the RNeasy Mini Kit (Qiagen). […]
Two-electrode voltage clamp experiments were performed 24–36 h after injection. […] Data were recorded at 1000 Hz and filtered at 100–200 Hz. […]
Current amplitude was measured in Clampfit 11.1 (Molecular Devices), and subsequent data analyses were performed in Prism v9 (GraphPad Software). […] This yielded n = 3 oocytes for responses to different concentrations, against which a single curve was fitted and half-maximal effective concentration (EC50) was calculated. […]

Substance: H-Phe-Met-Arg-Phe-NH2 [FMRFa]
- Erev of FMRFa-gated current (extracellular 140Na,1mMCa): 38 mV
- Erev of FMRFa-gated current (extracellular ~1Na,10Ca): -2 mV
